No constants are given. Whether binding was seen depends on the method and setting. Some results given as binding are weak or reduced against the parent protein; the word gives no strength.
Target: SStau296-390 (human)
Experiment: immunoblot of transgenic mouse brain, interpretation

Protein sequences, listed by entry. Tags and fused reporters are not part of them. Lines headed by an entry give the natural chain unless they say otherwise; changes in a name come on top. Chains listed by the source or under a name are the forms on record and can include a tag or linker.
endogenous mouse tau (P10637, form named): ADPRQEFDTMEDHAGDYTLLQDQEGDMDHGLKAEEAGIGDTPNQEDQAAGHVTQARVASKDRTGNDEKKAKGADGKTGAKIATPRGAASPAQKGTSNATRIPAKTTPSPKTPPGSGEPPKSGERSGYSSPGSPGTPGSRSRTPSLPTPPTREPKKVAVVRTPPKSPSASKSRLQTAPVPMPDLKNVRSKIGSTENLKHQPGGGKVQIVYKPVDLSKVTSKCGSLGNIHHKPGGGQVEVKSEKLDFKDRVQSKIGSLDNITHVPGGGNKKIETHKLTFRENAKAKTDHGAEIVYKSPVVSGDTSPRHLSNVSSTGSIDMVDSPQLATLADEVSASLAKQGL

## endogenous mouse tau (from UniProt P10637 2-341)
  binding: binds

Source: patent US7834237
